Results on one substance are retold here after patent US6897295 (MOCHIDA PHARMACEUTICAL, dated 2005).

Amino acid sequences for entries named in this document (tags omitted). A change or cut given only in a name is not applied to a line headed by its entry.
UniProt P48023: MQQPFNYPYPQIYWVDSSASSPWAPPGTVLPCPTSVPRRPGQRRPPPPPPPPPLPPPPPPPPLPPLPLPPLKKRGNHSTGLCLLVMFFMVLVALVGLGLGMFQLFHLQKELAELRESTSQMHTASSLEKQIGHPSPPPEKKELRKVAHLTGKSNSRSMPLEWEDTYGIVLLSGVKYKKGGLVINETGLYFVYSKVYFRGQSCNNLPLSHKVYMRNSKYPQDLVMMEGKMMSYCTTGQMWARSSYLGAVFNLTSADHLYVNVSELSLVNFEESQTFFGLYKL

This assay has as its target T1, human Fas antigen on WC8A / WC8 cells (human, UniProt P25445 26-335).
T1 construct: whole, on cells
T1 sequence (looked up): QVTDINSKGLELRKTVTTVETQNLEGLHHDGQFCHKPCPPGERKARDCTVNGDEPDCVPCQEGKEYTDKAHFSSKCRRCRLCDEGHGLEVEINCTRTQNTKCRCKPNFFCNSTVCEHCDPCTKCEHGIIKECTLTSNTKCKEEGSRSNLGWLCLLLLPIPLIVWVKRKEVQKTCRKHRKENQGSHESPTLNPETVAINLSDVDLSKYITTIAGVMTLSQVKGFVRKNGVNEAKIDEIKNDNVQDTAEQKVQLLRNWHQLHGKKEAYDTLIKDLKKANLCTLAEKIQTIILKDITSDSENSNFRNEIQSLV
Description: concluded from cytotoxicity of the culture supernatant on cells expressing human Fas antigen.

Results are given in words; binding and its absence hold for the method and conditions named. Some results given as binding are weak or reduced against the parent protein; the word gives no strength.

“human Fas ligand present in the culture supernatant of transformant COS-1/pEX-hFL1 (from UniProt P48023 130-281)”: the binding result is reported as “binds”.
